Over roughly 33,000 sequences, “E-score (-0.5 to 0.5)” has its median near -0.0059; the highest 2% begin near 0.26. The list shows a part of the results.
These sequences were tested against T1, Cin5 (UniProt P40917) (assay: PBM E-score (8-mer binding enrichment) (E-score (-0.5 to 0.5)); higher = stronger / more preferred TF binding). Conditions: protein concentration: 100 nM; construct: GST-full length.
T1 sequence: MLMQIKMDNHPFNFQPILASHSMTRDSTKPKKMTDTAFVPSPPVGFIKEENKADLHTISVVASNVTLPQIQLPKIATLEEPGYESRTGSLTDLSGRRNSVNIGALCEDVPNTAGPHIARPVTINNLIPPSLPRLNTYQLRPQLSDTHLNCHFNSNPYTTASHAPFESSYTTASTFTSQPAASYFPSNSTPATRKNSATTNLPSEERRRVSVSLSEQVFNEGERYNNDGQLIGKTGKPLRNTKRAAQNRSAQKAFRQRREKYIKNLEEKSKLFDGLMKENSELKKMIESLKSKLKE
Description: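 Universal 'all 10-mer' protein binding microarrays (Agilent AMADID 015681) probed with GST-tagged S. cerevisiae TFs (full-length or DBD) made by in vitro transcription/translation (PURExpress), about 100-200 nM. Bound TF was detected with fluorescent anti-GST. Each ungapped 8-mer (which stands for itself and its reverse complement) is scored by the PBM enrichment score (E-score), a modified Wilcoxon-Mann-Whitney statistic from -0.5 to +0.5, computed with the Universal PBM Analysis Suite. Scale: above 0.35 generally sequence-specific binding.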

| Sequence | PBM E-score |
| --- | --- |
| AGGCCGCG | -0.161 |
| CAAACTCG | 0.0562 |
| ATTCGCAC | -0.0442 |
| CGTTAGAC | -0.168 |
| GATAGAGA | -0.0355 |
| ACCGGAAT | 0.0498 |
| CAAATGAG | -0.025 |
| GAACGGAA | 0.176 |
| TATATAGA | 0.238 |
| AGGTGCGG | -0.0579 |
| AAGACAGA | 0.195 |
| AAACATTT | 0.175 |
| GGTGCACA | -0.189 |
| ATCGAAAG | 0.161 |
| GTTCGAAC | 0.139 |
| ATGCTCTC | -0.0579 |
| ACGTGGCG | -0.0905 |
| CTTAAGGA | -0.102 |
| CTACGGGA | -0.0722 |
| ATACCCGC | 0.155 |
| AGTCGAAG | -0.101 |
| ACCTCGCT | -0.0349 |
| CCTATTTA | 0.106 |
| ACCGCACT | 0.0106 |
| AGGAACCC | -0.106 |

| Sequence | PBM E-score |
| --- | --- |
| AATAACAG | 0.119 |
| CAACAGGA | -0.121 |
| GCGGCACC | -0.044 |
| CTGACCCA | -0.153 |
| CGCTCTTA | 0.138 |
| CCCGTTGC | -0.244 |
| GCTGCGAC | -0.124 |
| GCAAGTTA | 0.155 |
| TGTGCACA | -0.259 |
| ATACGACG | 0.106 |
| CAACGTAG | -0.0703 |
| CCGTTAGA | -0.0155 |
| GCAGACGA | -0.0111 |
| AAGTTAGC | 0.138 |
| ATATTCCG | 0.179 |
| CGCGGAGC | -0.0803 |
| GGTTTGAA | 0.139 |
| CATAGTGC | 0.0103 |
| ACACCCGT | -0.0661 |
| GTCCGAAA | 0.0489 |
| CGCAAGGA | 0.0484 |
| GGGCTATA | -0.104 |
| AGTGTGTC | -0.0087 |
| CGAACAAG | -0.0215 |
| ATTAGAGA | -0.0518 |

| Sequence | PBM E-score |
| --- | --- |
| GCATGATA | 0.168 |
| CCAGTCAG | -0.087 |
| ACCACTAA | 0.221 |
| ACGACAAT | 0.147 |
| AAGGTGGT | -0.0395 |
| CTCACGAA | 0.0615 |
| AGGAGGGG | -0.0529 |
| AACTCGCA | -0.0127 |
| GCACATTA | 0.0664 |
| AAATTGAA | 0.105 |
| CCTAGCCA | -0.199 |
| ATATGGGA | 0.131 |
| AAGAGAAC | -0.0311 |
| CAAAGAAG | -0.00102 |
| CCATGGAG | -0.0771 |
| GACAGCAC | 0.0627 |
| GACAGAAA | 0.116 |
| AGCGGGTC | -0.239 |
| GTGCCGAA | -0.12 |
| AGGCAGGA | -0.0428 |
| CGCAGCAG | -0.103 |
| AAGAACAG | 0.0572 |
| AGTTGTAC | 0.0071 |
| CGAGAGTC | -0.265 |
| AAGGAAAT | 0.0752 |

| Sequence | PBM E-score |
| --- | --- |
| CGGCTTAC | 0.358 |
| ATCTGTCC | 0.00845 |
| ACTCCTCT | -0.133 |
| CTATTCTC | 0.0935 |
| CATACTAA | 0.154 |
| CTGGGCAC | -0.178 |
| ACTGATAA | 0.182 |
| CCGACGTC | -0.0456 |
| TAGAGATA | 0.0496 |
| ACACTTAA | 0.0701 |
| AACCCCGT | 0.0797 |
| ATGTAGGG | -0.151 |
| ACTGGATA | 0.189 |
| CTTGCTAC | -0.096 |
| ACGTGGTC | -0.0603 |
| AGTTAATG | 0.175 |
| ATTAATCC | 0.18 |
| CCCACGCA | -0.0107 |
| TCTGCTAA | -0.052 |
| AATAATAG | 0.198 |
| CTCGCAAC | -0.0335 |
| GCCTACGC | -0.137 |
| CATCGCGC | 0.0145 |
| AAAGTATG | 0.163 |
| CAAAAAAG | 0.141 |

| Sequence | PBM E-score |
| --- | --- |
| ACGTGGTA | -0.0413 |
| GATACCAA | 0.14 |
| CTTGACGA | -0.194 |
| TCGTTTCA | 0.0907 |
| CGAGTCGA | 0.0554 |
| ACATTGCC | -0.0456 |
| CGGGAGAG | -0.206 |
| AGCGAATC | 0.009 |
| GATACTCC | 0.00607 |
| GCCTAGAC | -0.241 |
| CAGTATAA | 0.284 |
| AAACAGTC | -0.151 |
| CATATTGG | 0.165 |
| CTTGGCGC | -0.0524 |
| CGATAGAA | 0.0849 |
| GAAATCAA | 0.167 |
| CAGTTCGC | 0.103 |
| AATAAAGC | -0.0487 |
| AGGATCGG | -0.108 |
| AGACCCGC | -0.0923 |
| GATCAGCA | 0.0782 |
| TAAATCAA | 0.155 |
| AGACCCCA | 0.11 |
| ACCGGAGG | -0.265 |
| ACAGAGGA | -0.0466 |

| Sequence | PBM E-score |
| --- | --- |
| ATGAGACG | -0.102 |
| TGAGCCCA | 0.0383 |
| ACGGATCG | -0.121 |
| ACGGTCTA | -0.181 |
| GCACGGAC | 0.0808 |
| ACGTATTG | 0.0396 |
| TGCTTACA | 0.305 |
| CGCGTCTA | -0.0222 |
| AGCAACAG | -0.0741 |
| GCTCCGGA | -0.0137 |
| CTGACACA | 0.0324 |
| CACTGTAA | 0.0989 |
| ATGTTCAG | -0.11 |
| ATAAGAAG | 0.116 |
| ACAAGAGT | -0.0535 |
| CATTACTA | 0.189 |
| GAGGGGGC | -0.415 |
| ATACGCCC | -0.197 |
| ATCCACGA | 0.0249 |
| CAAGCAGC | 0.00785 |
| AGGTTCTA | -0.0635 |
| AAAATGCT | 0.197 |
| ATCAGTGA | 0.0123 |
| GGAGTTAA | -0.0106 |
| CGATGTCC | -0.0143 |

Reprinted from the entries so far for reference:

| Sequence | PBM E-score |
| --- | --- |
| CATCGCGC | 0.0145 |
| AAAGTATG | 0.163 |
| CAAAAAAG | 0.141 |
| ACGTGGTA | -0.0413 |
| GATACCAA | 0.14 |
| CTTGACGA | -0.194 |
| TCGTTTCA | 0.0907 |
| CGAGTCGA | 0.0554 |
| ACATTGCC | -0.0456 |
| CGGGAGAG | -0.206 |
| AGCGAATC | 0.009 |
| GATACTCC | 0.00607 |
| GCCTAGAC | -0.241 |
| CAGTATAA | 0.284 |
| AAACAGTC | -0.151 |
| CATATTGG | 0.165 |
| CTTGGCGC | -0.0524 |
| CGATAGAA | 0.0849 |
| GAAATCAA | 0.167 |
| CAGTTCGC | 0.103 |
| AATAAAGC | -0.0487 |
| AGGATCGG | -0.108 |
| AGACCCGC | -0.0923 |
| GATCAGCA | 0.0782 |
| TAAATCAA | 0.155 |
| AGACCCCA | 0.11 |
| ACCGGAGG | -0.265 |
| ACAGAGGA | -0.0466 |
| ATGAGACG | -0.102 |
| TGAGCCCA | 0.0383 |
| ACGGATCG | -0.121 |
| ACGGTCTA | -0.181 |
| GCACGGAC | 0.0808 |
| ACGTATTG | 0.0396 |
| TGCTTACA | 0.305 |
| CGCGTCTA | -0.0222 |
| AGCAACAG | -0.0741 |
| GCTCCGGA | -0.0137 |
| CTGACACA | 0.0324 |
| CACTGTAA | 0.0989 |
| ATGTTCAG | -0.11 |
| ATAAGAAG | 0.116 |
| ACAAGAGT | -0.0535 |
| CATTACTA | 0.189 |
| GAGGGGGC | -0.415 |
| ATACGCCC | -0.197 |
| ATCCACGA | 0.0249 |
| CAAGCAGC | 0.00785 |
| AGGTTCTA | -0.0635 |
| AAAATGCT | 0.197 |

(further entries)

| Sequence | PBM E-score |
| --- | --- |
| CCTATGAC | -0.204 |
| CGTGGTCC | -0.236 |
| AGAAGGTA | 0.166 |
| AGTTGAGC | 0.113 |
| CTGGCGAA | -0.107 |
| CCACAGGG | -0.266 |
| AAGTCGAG | -0.093 |
| GTTCATTA | 0.145 |
| GTTTAGAA | 0.0498 |
| GGCCCGCC | -0.326 |
| CAGTCTTA | -0.0401 |
| CATTGCTC | -0.157 |
| GAAAATAA | 0.0781 |
| ACCAGGTG | -0.263 |
| GAGACCCA | -0.0041 |
| AACTAAGC | 0.225 |
| GAAAACTC | -0.0719 |
| ATTCGTTC | 0.224 |
| CTGAGATC | -0.154 |
| AGAAGGAC | -0.211 |
| ATCTGAGC | 0.0647 |
| CGAGGCAG | 0.0214 |

From the supplement of paper PMC3334620
